Mtb cholesterol medium: 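Growth of Mycobacterium tuberculosis over 4 days (cholesterol / DPPC medium with tyloxapol); the read-out is not stated. Compounds at 50 µM. Direction is inferred from retests: higher values go with more growth inhibition. Size under these conditions: about 69,000 compounds, about 370 of them at 50% or above in at least one test.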
Mtb glucose medium: 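Whole-cell growth test on Mycobacterium tuberculosis, read after 3 days in glucose-containing 7H9 medium; the read-out is not stated. Compounds at 50 µM. Direction is inferred from retests: higher values go with more growth inhibition. About 69,000 compounds were tested under these conditions; 1.1% (about 760) showed 50% or more at least once.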

Each number is a percent effect as filed. How 0% and 100% were set is not recorded. Most values in the screen are low, and negative values occur. This is an unselected part of the compounds tested. Two or more numbers in one place are separate tests of the same structure; such repeats can differ widely.

SMILES | Mtb cholesterol medium | Mtb glucose medium
Cl.Cl.O[C@@H]1C[C@@](CNCC2CC2)(COc2cccnc2)C[C@@H]1O | -14 | 4.625 & -1.659
CCc1noc(C2CCCCN2C(=O)c2ccoc2C)n1 (configuration not stated) | -13.88 | -4.256
CCN(CC)C(=O)c1ccc(CNc2cncc(-n3cccn3)n2)cc1 | -17.5 | -10.52
O=C(O)C(F)(F)F.[H][C@@]12COC[C@]1([H])[C@@H](OCc1cccnc1)CN2C(=O)NC(C)C | -6.858 | -5.106
CCCn1cnnc1CNC1CCCC1 | -45.25 | -30.54
Cc1cc(Nc2nc(C)cs2)nc(C2CCCCN2CCO)n1 (configuration not stated) | 21.01 | 16.19
COCC1COCCC12CCN(C(=O)CCc1ccccc1)CC2 (configuration not stated) | -4.639 & -7.716 | -0.3778
C1=C(CNC2CCc3ncnn3C2)COc2ccccc21 (configuration not stated) | 1.839 | -5.7
CC(C)Cc1noc(C2CCN(C(=O)c3cccs3)CC2)n1 | 7.126 | -8.551
[H][C@]12CCCCN1CCC[C@H]2CCC(=O)NCCc1nc(N)cc(O)n1 | -18.57 | -26.98
CN(C)CCOCc1cncc2c1CCN(C1CCOCC1)C2.O=C(O)C(F)(F)F.O=C(O)C(F)(F)F.O=C(O)C(F)(F)F | -14.3 | -5.83
CC(C)OCCN1CCC(Nc2nccnc2C#N)CC1 | 9.199 | -17.37
COc1ccc(N2CCN(C(=O)CCn3nnnc3C)CC2(C)C)cc1 | -17.35 & -2.122 | -17.13
CN(C)c1cc(CNC(=O)Nc2nccs2)ccn1 | -5.899 | -16.03
CN1CCC(N2CCN(C(C(=O)O)c3cccc4c3OCC4)CC2)CC1 (configuration not stated) | 4.866 | -7.645
CCc1nccn1C1CCCN(C(=O)c2ccn(C)c(=O)c2)C1 (configuration not stated) | 1.816 & -4.457 | -59.99
COc1ccc(CN(C)[C@@H]2CN(C(=O)c3ccnn3C)C[C@H]2O)cc1 | -1.372 | -2.046
Cc1[nH]ccc1C(=O)N1CCCC(c2nccn2Cc2cscn2)C1 (configuration not stated) | -9.058 | -43.25
CC(C)n1ccnc1C1CCN(Cc2ccc(Cl)s2)CC1 | 3.068 | 54.43
[H][C@]12CCN(c3ncccn3)[C@@]1([H])CC[C@@H](COCc1ccccn1)O2 | 13.31 & -7.393 | -8.12
CC[C@H](C)Cn1nc(C2CCNCC2)n(Cc2ccccc2)c1=O | -15.58 | -6.927
CCc1ncc2c(n1)CN(c1cc(NCCO)nc(N)n1)C2 | -1.888 | -4.077
CC(O)CN1CCN(C(=O)c2cnn(-c3ccccc3Cl)c2)CC1 (configuration not stated) | -16.3 & -11.6 | -4.787
COCCN1CCCC1c1cccc2c1OCCO2 (configuration not stated) | 1.035 & -8.547 | 1.172
CCC[C@H]1CN(C(=O)c2ccc3[nH]c(CO)nc3c2)C[C@@H]1N | -7.001 | 9.845
COc1ccc(OC)c(-c2cc(C(=O)NCC3(CO)CC3)n(C)n2)c1 | -2.339 | 28.1
[H][C@]12CCN(S(C)(=O)=O)[C@@]1([H])CC[C@@H](COCc1csc(C)n1)O2 | -17.67 | 9.265
[H][C@@]12C[C@H](C(=O)NC3CCC3)C[C@@]1([H])OCCN2 | -6.694 | 0.7796 & 14.15
O=C(O)C(F)(F)F.O=C(O)C(F)(F)F.[H][C@@]12CCN(Cc3nc(C)cs3)[C@]1([H])CC[C@@H](C(=O)Nc1cccnc1)O2 | 1.813 | -12.24
CCc1noc(C(C)N2CCC(NS(=O)(=O)c3cccs3)CC2)n1 (configuration not stated) | -16.02 | -4.876 & 6.731
CN(C(=O)c1cccc(Cl)c1)C1CCN(c2ccccn2)CC1 | 9.462 | 9.584
Cc1c(C[S+](C)[O-])cccc1NC(=O)c1cc(Cl)ccn1 (configuration not stated) | 15.04 | 0.7876 & 15.87
CCc1nc(CNCC2CCCN2c2cccnn2)cs1 (configuration not stated) | 4.324 | 1.895
[H][C@]12CCC(=O)N(c3cccnc3)[C@@]1([H])CCN2C(=O)c1cnccn1 | -4.433 & -10.48 | -6.682
CC(=O)N1CC2(CCNCC2)c2cc(Cl)ccc21.Cl | 18.24 & 22.85 | 29.7
[H][C@@]12COC[C@H](c3nc(C)no3)[C@]1([H])CN(C(=O)Cc1cccs1)C2 | -1.28 | 13
CC(C)c1nn(C)c(N(C)C)c1CNCCC(=O)N(C)C.Cl | 2.276 | 9.372
Oc1ccccc1N1CCN(c2ncnc3sc4c(c23)CCNC4)CC1 | -25.02 | -27.66
CCN(CC)S(=O)(=O)CCNC(=O)c1cc2cccc(F)c2o1 | 24.42 | 19.41 & 17.11
Cc1cnc(C(=O)N2Cc3cc(Cl)ccc3OC3(CCOCC3)C2)cn1 | 21.57 | 16.45
CCc1nnc(CN2CCCCC2Cn2nc(C)nc2C)o1 (configuration not stated) | -12.87 | 14.04
Cc1c[nH]c(CN2CCCCC2CCn2ccnc2C)c(C)c1=O (configuration not stated) | 10.8 | 23.49 & -7.309

Some entries from above, unchanged:

{"smiles": "[H][C@@]12C[C@H](C(=O)NC3CCC3)C[C@@]1([H])OCCN2", "Mtb cholesterol medium": -6.694, "Mtb glucose medium": "0.7796 & 14.15"}
{"smiles": "C1=C(CNC2CCc3ncnn3C2)COc2ccccc21", "stereo": "configuration not stated", "Mtb cholesterol medium": 1.839, "Mtb glucose medium": -5.7}
{"smiles": "CCc1noc(C2CCCCN2C(=O)c2ccoc2C)n1", "stereo": "configuration not stated", "Mtb cholesterol medium": -13.88, "Mtb glucose medium": -4.256}

From ChEMBL document CHEMBL3988442, “University of Dundee, Small-Polar-MMV Screening Library” (2021).